{"source": "the supplement of paper PMC12067093", "about": "“Discovery and optimisation of a covalent ligand for TRIM25 and its application to targeted protein ubiquitination” (Chemical Science, 2025)", "compound": "CC1Cc2ccccc2N1C(=O)C1CCCN(C1)C(=O)CCl (mixture of isomers) [TRIM25 ligand 11 (diastereomer mixture)]", "assay": "probe-labelled cysteine peptide fold change vs DMSO (competition) (log2 fold change); higher = less target engagement (more negative = stronger competition)", "conditions": "THP-1, incubation time: 4 h", "note": "The list shows a part of the results.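 Note: competitive chemoproteomic profiling in live THP-1 cells with an iodoacetamide desthiobiotin (IA-DTB) probe, comparing probe-labelled peptide intensities in compound-treated cells against DMSO-treated controls.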"}
{"target": "RBPJ_Q06330_180_NADLCIASGTK (UniProt Q06330)", "values": [{"measurement": "probe-labelled cysteine peptide fold change", "setting": "10 µM", "result": -0.0912}, {"measurement": "probe-labelled cysteine peptide fold change", "setting": "50 µM", "result": -0.204}]}
{"target": "RAI1_Q7Z5J4_828_EEAGGLLQCPEVAK (UniProt Q7Z5J4)", "values": [{"measurement": "probe-labelled cysteine peptide fold change", "setting": "10 µM", "result": -0.0134}, {"measurement": "probe-labelled cysteine peptide fold change", "setting": "50 µM", "result": -0.248}]}
{"target": "RANBP2_P49792_2982_VCANHVITK (UniProt P49792)", "values": [{"measurement": "probe-labelled cysteine peptide fold change", "setting": "10 µM", "result": 0.0898}, {"measurement": "probe-labelled cysteine peptide fold change", "setting": "50 µM", "result": 0.0664}]}
{"target": "RCHY1_Q96PM5_105_QYHCENCGICR (UniProt Q96PM5)", "values": [{"measurement": "probe-labelled cysteine peptide fold change", "setting": "10 µM", "result": 0.0544}, {"measurement": "probe-labelled cysteine peptide fold change", "setting": "50 µM", "result": -0.0674}]}
{"target": "RASA2_Q15283_436_SCEIDPIK (UniProt Q15283)", "values": [{"measurement": "probe-labelled cysteine peptide fold change", "setting": "10 µM", "result": 0.0172}, {"measurement": "probe-labelled cysteine peptide fold change", "setting": "50 µM", "result": -0.0986}]}
{"target": "RAP1GAP2_Q684P5_171_DHLNFYCTGSSLGNLILSVK (UniProt Q684P5)", "values": [{"measurement": "probe-labelled cysteine peptide fold change", "setting": "10 µM", "result": -0.163}, {"measurement": "probe-labelled cysteine peptide fold change", "setting": "50 µM", "result": 0.056}]}
{"target": "RARS2_Q5T160_372_CQHVPFGVVQGMK (UniProt Q5T160)", "values": [{"measurement": "probe-labelled cysteine peptide fold change", "setting": "10 µM", "result": -0.0161}, {"measurement": "probe-labelled cysteine peptide fold change", "setting": "50 µM", "result": 0.0733}]}
{"target": "RARS_P54136_369_IVFVPGCSIPLTIVK (UniProt P54136)", "values": [{"measurement": "probe-labelled cysteine peptide fold change", "setting": "10 µM", "result": -0.0819}, {"measurement": "probe-labelled cysteine peptide fold change", "setting": "50 µM", "result": 0.0673}]}
{"target": "RBBP7_Q16576_277_PSHLVDAHTAEVNCLSFNPYSEFILATGSADK (UniProt Q16576)", "values": [{"measurement": "probe-labelled cysteine peptide fold change", "setting": "10 µM", "result": 0.218}, {"measurement": "probe-labelled cysteine peptide fold change", "setting": "50 µM", "result": 0.301}]}
{"target": "RAI1_Q7Z5J4_40_QPSQAGLSCDR (UniProt Q7Z5J4)", "values": [{"measurement": "probe-labelled cysteine peptide fold change", "setting": "10 µM", "result": -0.0619}, {"measurement": "probe-labelled cysteine peptide fold change", "setting": "50 µM", "result": -0.257}]}
{"target": "RCC1L_Q96I51_237_MQDFDGQVVQVACGQDHSLFLTDK (UniProt Q96I51)", "values": [{"measurement": "probe-labelled cysteine peptide fold change", "setting": "10 µM", "result": 0.267}, {"measurement": "probe-labelled cysteine peptide fold change", "setting": "50 µM", "result": -0.072}]}
{"target": "RAPGEF6_Q8TEU7_796_EVVFHAVHEFGLTGASDTYSLCEVSVTPEGVIK (UniProt Q8TEU7)", "values": [{"measurement": "probe-labelled cysteine peptide fold change", "setting": "10 µM", "result": 0.228}, {"measurement": "probe-labelled cysteine peptide fold change", "setting": "50 µM", "result": -0.0184}]}
{"target": "RBM6_P78332_1057_GGCVQQATGWR (UniProt P78332)", "values": [{"measurement": "probe-labelled cysteine peptide fold change", "setting": "10 µM", "result": -0.0787}, {"measurement": "probe-labelled cysteine peptide fold change", "setting": "50 µM", "result": -0.056}]}
{"target": "RBBP5_Q15291_126_VLVCPMK (UniProt Q15291)", "values": [{"measurement": "probe-labelled cysteine peptide fold change", "setting": "10 µM", "result": 0.0417}, {"measurement": "probe-labelled cysteine peptide fold change", "setting": "50 µM", "result": 0.15}]}
